These are yes or no findings as the source states them, for the method shown. Binding seen in cells or lysates may run through a third protein. Binding calls can cover weak binding; strength is not graded here. For part of these data: Where a sequence is shown, tags or fusion partners need not be part of it.
T1: Flag-CENP-B (human) (UniProt P07199)
T1 sequence: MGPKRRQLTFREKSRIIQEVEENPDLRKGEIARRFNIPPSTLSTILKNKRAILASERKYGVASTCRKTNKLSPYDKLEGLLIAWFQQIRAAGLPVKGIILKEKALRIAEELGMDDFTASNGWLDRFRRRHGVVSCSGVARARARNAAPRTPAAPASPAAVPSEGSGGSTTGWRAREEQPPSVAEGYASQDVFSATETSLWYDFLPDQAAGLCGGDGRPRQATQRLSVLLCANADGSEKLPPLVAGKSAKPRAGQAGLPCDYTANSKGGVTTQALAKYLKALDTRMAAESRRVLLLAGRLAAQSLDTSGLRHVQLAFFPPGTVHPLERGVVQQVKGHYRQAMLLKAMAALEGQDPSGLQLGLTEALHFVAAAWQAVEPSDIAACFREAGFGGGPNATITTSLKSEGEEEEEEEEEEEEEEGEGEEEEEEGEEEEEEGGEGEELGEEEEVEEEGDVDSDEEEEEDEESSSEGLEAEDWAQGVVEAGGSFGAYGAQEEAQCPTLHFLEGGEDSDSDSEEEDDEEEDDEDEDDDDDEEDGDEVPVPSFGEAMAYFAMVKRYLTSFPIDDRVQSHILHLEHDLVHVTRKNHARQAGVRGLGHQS


Legend:
Flag-CENP-B (human) = target: T1, Flag-CENP-B (human); test: co-IP; HeLa cells transfected transiently for 24 h, lysed in RIPA buffer (50 mM Tris pH 7.5, 150 mM NaCl, 1 mM EDTA, 0.25% sodium deoxycholate, 1% NP-40); anti-Flag overnight at 4 °C, Protein A/G plus-Sepharose; Western blot; control IgG
Flag-INMAP = test: as above
His-INMAP = test: pull-down; Ni2+ beads with His-INMAP incubated with HeLa cell extract for 2 h, washed, eluted by boiling; Western blot with anti-CENP-B; control with empty beads; only the target purified

Row | binding (Flag-INMAP) | binding (His-INMAP) | Molecule | binding (Flag-CENP-B (human))
1 | – | – | INMAP (human (endogenous in HeLa)) | binds
2 | binds | binds | CENP-B (protein, UniProt P07199 1-599) MGPKRRQLTFREKSRIIQEVEENPDLRKGEIARRFNIPPSTLSTILKNKRAILASERKYGVASTCRKTNKLSPYDKLEGLLIAWFQQIRAAGLPVKGIILKEKALRIAEELGMDDFTASNGWLDRFRRRHGVVSCSGVARARARNAAPRTPAAPASPAAVPSEGSGGSTTGWRAREEQPPSVAEGYASQDVFSATETSLWYDFLPDQAAGLCGGDGRPRQATQRLSVLLCANADGSEKLPPLVAGKSAKPRAGQAGLPCDYTANSKGGVTTQALAKYLKALDTRMAAESRRVLLLAGRLAAQSLDTSGLRHVQLAFFPPGTVHPLERGVVQQVKGHYRQAMLLKAMAALEGQDPSGLQLGLTEALHFVAAAWQAVEPSDIAACFREAGFGGGPNATITTSLKSEGEEEEEEEEEEEEEEGEGEEEEEEGEEEEEEGGEGEELGEEEEVEEEGDVDSDEEEEEDEESSSEGLEAEDWAQGVVEAGGSFGAYGAQEEAQCPTLHFLEGGEDSDSDSEEEDDEEEDDEDEDDDDDEEDGDEVPVPSFGEAMAYFAMVKRYLTSFPIDDRVQSHILHLEHDLVHVTRKNHARQAGVRGLGHQS | –
